In patent US20210087620A1, “Target Gene Identifying Method for Tumor Treatment” (Samsung Life Public Welfare Foundation Samsung Life Public …, priority 2017, published 2021):
At least one structure is not confirmed: it was looked up by name or label, or the drawing left a doubt.

Experiments:
[1] = tested on: right tumor-derived cells of the GBM9 patient; test: PDC-based chemical screening (ATP cell viability, dose-response AUC), right tumor; design: species or system human; conditions: GBM9 right tumor PDCs; 6 days; 20 μM to 4.88 nM; FIG. 6
Procedure: (§1) According to one embodiment, the measuring of drug sensitivity of each sample by subjecting the multiple samples to drug screening may include obtaining a cell viability curve of each sample according to a dose of each drug; and calculating an area under the curve.
(§2) GBM9 patient had tumors in the right and left frontal lobes of the brain, respectively. In this regard, 40 kinds of anticancer agents were administered to samples collected from the respective tumors, and tumor cell viability was examined.
(§3) When a curve of tumor cell viability vs drug dose is plotted, an area under the curve (AUC) may be used as an index of drug sensitivity. […]
(§4) PDCs grown in serum-free medium were seeded in 384 well plates at a density of 500 cells per well in duplicate or triplicate. […] After 6 days of incubation at 37° C. in a 5% CO2 humidified incubator, cell viability was analyzed using an adenosine triphosphate (ATP) monitoring system based on firefly luciferase (ATPLite™ 1step, PerkinElmer). At this time, viable cells were estimated using an EnVision Multilabel Reader (PerkinElmer). […] DRC fitting was performed using GraphPad Prism 5 (GraphPad) and evaluated by measuring an area under the curve (AUC) of dose response curve. After normalization, best-fit lines were determined and the AUC value of each curve was calculated using a GraphPad Prism. […]

[2] = tested on: left tumor-derived cells of the GBM9 patient; test: PDC-based chemical screening (ATP cell viability, dose-response AUC), left tumor; design: species or system human; conditions: GBM9 left tumor PDCs; 6 days; 20 μM to 4.88 nM; FIG. 6
Procedure: as §1, §2, §3, §4

CN(C)C/C=C/C(=O)Nc1cc2c(Nc3ccc(F)c(Cl)c3)ncnc2cc1O[C@H]1CCOC1 [afatinib, Afatinib]
survival rate of tumor cells with increasing drug dose [1]: the survival rate of the right tumor maintained low
survival rate of tumor cells with increasing drug dose [2]: the survival rate of the left tumor maintained high
